Reference: publication PMC10914487, “Interaction of human dendritic cell receptor DEC205/CD205 with keratins” (The Journal of Biological Chemistry, 2024)
Results are given in words; binding and its absence hold for the method and conditions named. Sequences can lack the tags named with a protein.

Biological target: T1, K10-T3 (residue G521-Y584), SUMO fusion (human) (UniProt P13645)
T1 sequence: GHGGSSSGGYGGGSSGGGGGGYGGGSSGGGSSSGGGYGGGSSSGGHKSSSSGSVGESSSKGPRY
Experiment: far-Western, overlay or dot blot; keratin fragments resolved by SDS-PAGE and transferred to PVDF; membrane incubated with CysR∼CTLD3-Fc (10 μg/ml) in PBS, 5% milk, 0.1% Tween 20, pH 6.0 or pH 7.4, 2 h, room temperature; detected with HRP anti-human IgG Fcγ antibody; both purified

binding: no binding (tested: 10 μg/ml)
B1: CysR∼CTLD3-Fc of DEC205 (Fc fusion, UniProt O60449 28-627)
chain: SGRAANDPFTIVHGNTGKCIKPVYGWIVADDCDETEDKLWKWVSQHRLFHLHSQKCLGLDITKSVNELRMFSCDSSAMLWWKCEHHSLYGAARYRLALKDGHGTAISNASDVWKKGGSEESLCDQPYHEIYTRDGNSYGRPCEFPFLIDGTWHHDCILDEDHSGPWCATTLNYEYDRKWGICLKPENGCEDNWEKNEQFGSCYQFNTQTALSWKEAYVSCQNQGADLLSINSAAELTYLKEKEGIAKIFWIGLNQLYSARGWEWSDHKPLNFLNWDPDRPSAPTIGGSSCARMDAESGLWQSFSCEAQLPYVCRKPLNNTVELTDVWTYSDTRCDAGWLPNNGFCYLLVNESNSWDKAHAKCKAFSSDLISIHSLADVEVVVTKLHNEDIKEEVWIGLKNINIPTLFQWSDGTEVTLTYWDENEPNVPYNKTPNCVSYLGELGQWKVQSCEEKLKYVCKRKGEKLNDASSDKMCPPDEGWKRHGETCYKIYEDEVPFGTNCNLTITSRFEQEYLNDLMKKYDKSLRKYFWTGLRDVDSCGEYNWATVGGRRRAVTFSNWNFLEPASPGGCVAMSTGKSVGKWEVKDCRSFKALSICKKMS
